# ± gives the standard deviation of the averaged measurements. Only a part is listed here, and it is no random draw. Small differences around the control level are noise.
# Sequences of proteins named here, by UniProt entry; tags and fusion partners are left off. A change or cut given only in a name is not applied to a line headed by its entry.
# UniProt P41250: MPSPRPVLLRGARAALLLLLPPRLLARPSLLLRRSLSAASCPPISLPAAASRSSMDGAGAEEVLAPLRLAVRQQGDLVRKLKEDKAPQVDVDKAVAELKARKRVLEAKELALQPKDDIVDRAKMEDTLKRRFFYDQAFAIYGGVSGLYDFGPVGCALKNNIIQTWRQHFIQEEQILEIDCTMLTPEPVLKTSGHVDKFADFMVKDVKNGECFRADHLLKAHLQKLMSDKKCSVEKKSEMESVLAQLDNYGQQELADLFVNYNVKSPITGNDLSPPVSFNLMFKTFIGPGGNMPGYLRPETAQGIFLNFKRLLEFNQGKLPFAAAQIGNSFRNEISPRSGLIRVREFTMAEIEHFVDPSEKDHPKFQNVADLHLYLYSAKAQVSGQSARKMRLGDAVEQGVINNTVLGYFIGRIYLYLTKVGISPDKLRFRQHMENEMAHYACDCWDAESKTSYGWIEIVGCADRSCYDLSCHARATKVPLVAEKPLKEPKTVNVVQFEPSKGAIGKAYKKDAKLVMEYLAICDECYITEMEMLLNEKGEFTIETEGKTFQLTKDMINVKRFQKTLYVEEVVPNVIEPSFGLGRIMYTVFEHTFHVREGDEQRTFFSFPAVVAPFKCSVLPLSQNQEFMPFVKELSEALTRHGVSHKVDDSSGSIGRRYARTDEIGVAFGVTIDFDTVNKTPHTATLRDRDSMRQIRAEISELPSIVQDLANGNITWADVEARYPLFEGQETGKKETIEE
# UniProt P49721: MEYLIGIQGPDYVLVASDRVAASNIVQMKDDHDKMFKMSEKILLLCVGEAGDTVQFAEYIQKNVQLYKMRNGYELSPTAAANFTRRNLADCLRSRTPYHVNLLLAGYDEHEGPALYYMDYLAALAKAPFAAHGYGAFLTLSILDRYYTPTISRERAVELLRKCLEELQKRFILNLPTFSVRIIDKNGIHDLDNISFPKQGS
# UniProt P49458: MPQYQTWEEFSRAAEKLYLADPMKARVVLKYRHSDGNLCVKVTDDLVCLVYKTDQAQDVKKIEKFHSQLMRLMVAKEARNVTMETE
# UniProt P41236: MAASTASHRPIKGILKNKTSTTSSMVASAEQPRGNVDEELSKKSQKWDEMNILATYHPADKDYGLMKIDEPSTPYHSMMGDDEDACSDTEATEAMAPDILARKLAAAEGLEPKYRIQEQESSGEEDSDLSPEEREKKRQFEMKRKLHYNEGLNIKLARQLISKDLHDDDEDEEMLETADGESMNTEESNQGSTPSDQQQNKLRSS
# UniProt P51159: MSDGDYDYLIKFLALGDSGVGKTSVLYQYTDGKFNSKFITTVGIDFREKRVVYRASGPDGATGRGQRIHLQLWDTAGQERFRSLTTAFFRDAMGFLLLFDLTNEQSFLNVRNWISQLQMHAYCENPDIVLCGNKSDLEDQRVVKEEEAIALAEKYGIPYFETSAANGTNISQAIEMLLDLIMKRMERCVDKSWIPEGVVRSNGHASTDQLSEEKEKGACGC
# UniProt P40227, whole entry: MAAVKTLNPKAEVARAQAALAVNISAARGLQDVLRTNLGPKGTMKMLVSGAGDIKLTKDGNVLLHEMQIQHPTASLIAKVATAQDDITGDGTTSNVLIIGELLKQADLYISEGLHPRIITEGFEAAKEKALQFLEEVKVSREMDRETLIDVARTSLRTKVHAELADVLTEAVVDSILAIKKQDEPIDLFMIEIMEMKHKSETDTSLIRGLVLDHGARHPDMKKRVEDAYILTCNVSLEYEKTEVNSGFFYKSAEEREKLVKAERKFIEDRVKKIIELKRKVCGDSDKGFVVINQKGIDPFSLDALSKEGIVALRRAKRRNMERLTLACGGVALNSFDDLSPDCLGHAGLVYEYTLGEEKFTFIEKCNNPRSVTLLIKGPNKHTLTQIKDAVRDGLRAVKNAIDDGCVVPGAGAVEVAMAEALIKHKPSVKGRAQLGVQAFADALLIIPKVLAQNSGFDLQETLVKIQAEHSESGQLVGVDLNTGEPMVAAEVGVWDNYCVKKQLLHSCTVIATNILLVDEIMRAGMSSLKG
# UniProt P36543, whole entry: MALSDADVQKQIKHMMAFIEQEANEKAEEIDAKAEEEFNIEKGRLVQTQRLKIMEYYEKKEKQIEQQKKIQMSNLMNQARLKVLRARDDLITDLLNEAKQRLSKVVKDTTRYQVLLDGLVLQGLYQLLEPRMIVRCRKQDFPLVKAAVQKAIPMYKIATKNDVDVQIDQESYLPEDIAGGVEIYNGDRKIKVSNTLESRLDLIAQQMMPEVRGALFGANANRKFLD
# UniProt P49795: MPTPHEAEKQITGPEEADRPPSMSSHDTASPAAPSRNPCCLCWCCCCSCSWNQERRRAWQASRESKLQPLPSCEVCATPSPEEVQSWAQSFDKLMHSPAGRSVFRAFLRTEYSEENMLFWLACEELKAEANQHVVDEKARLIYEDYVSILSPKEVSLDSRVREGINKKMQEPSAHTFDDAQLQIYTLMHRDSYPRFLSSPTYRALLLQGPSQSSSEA
# UniProt P42898: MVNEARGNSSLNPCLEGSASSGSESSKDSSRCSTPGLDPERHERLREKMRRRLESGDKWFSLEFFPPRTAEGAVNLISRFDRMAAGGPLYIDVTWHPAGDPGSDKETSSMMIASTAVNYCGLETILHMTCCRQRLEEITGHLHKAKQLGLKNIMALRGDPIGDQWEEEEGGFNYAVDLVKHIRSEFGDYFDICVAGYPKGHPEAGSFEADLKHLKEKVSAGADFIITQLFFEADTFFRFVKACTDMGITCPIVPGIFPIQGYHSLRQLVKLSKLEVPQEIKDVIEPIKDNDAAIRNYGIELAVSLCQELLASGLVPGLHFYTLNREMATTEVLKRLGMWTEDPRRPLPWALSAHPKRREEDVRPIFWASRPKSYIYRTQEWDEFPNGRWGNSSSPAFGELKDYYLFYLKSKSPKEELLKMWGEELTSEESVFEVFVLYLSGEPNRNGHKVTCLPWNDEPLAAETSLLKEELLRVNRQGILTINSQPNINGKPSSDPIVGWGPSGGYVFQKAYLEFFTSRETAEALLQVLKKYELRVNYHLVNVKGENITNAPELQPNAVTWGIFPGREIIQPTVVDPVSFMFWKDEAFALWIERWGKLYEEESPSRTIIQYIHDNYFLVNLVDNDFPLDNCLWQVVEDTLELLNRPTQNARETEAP
# UniProt P46199: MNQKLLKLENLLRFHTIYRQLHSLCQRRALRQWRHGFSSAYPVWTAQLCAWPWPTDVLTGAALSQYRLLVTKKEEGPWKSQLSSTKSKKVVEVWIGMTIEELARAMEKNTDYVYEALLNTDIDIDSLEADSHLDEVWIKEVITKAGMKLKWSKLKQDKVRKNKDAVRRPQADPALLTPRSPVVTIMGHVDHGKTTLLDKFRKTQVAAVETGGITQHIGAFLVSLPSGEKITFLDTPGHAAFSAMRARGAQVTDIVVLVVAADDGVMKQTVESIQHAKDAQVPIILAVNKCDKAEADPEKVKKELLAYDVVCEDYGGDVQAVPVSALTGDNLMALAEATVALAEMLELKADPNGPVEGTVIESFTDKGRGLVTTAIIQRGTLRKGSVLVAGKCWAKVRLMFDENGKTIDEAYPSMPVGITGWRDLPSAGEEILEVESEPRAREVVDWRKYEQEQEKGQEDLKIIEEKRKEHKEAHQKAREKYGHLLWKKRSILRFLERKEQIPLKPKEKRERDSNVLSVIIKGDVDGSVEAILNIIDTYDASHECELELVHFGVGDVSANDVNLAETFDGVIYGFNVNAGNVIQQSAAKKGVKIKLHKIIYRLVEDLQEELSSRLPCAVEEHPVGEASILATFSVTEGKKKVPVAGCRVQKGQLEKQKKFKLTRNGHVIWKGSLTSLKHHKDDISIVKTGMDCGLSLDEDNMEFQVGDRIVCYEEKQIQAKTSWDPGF
# UniProt P49736, whole entry: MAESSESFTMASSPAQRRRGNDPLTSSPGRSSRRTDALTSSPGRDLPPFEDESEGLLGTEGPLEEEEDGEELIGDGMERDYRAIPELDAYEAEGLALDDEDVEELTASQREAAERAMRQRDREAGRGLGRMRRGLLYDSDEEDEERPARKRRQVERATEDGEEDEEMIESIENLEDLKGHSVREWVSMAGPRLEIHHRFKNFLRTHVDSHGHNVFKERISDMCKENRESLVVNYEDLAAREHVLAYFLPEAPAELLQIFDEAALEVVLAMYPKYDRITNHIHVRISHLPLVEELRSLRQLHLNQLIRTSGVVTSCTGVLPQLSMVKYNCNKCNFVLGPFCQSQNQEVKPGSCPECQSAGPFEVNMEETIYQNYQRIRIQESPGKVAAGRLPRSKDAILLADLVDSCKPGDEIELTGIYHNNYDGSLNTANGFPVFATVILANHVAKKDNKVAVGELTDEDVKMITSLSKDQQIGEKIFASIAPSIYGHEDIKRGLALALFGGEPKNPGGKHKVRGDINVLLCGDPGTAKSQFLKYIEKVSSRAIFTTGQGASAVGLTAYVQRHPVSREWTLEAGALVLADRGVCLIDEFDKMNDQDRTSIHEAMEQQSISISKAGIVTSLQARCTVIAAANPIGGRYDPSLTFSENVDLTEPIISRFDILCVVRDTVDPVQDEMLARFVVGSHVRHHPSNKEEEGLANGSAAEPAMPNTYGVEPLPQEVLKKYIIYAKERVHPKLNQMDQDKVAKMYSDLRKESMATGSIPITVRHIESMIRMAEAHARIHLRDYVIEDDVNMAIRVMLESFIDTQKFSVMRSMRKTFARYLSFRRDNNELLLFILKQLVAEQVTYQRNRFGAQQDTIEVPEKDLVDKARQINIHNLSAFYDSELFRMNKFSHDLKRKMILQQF
# UniProt P38432, whole entry: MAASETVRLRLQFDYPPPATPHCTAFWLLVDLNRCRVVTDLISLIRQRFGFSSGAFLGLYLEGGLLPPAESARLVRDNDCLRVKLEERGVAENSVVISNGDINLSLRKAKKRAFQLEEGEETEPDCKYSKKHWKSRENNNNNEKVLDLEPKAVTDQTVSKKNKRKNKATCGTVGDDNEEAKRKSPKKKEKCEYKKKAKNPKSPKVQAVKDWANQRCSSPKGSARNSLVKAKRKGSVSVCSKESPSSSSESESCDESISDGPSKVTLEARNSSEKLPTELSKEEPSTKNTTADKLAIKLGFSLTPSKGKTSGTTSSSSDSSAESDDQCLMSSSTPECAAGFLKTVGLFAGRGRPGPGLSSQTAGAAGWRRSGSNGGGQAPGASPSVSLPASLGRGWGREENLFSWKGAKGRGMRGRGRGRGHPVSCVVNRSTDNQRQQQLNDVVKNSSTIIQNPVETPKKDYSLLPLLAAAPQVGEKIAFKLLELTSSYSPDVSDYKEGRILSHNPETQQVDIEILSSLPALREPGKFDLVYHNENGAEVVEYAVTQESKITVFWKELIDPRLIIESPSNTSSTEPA
# UniProt P48454, whole entry: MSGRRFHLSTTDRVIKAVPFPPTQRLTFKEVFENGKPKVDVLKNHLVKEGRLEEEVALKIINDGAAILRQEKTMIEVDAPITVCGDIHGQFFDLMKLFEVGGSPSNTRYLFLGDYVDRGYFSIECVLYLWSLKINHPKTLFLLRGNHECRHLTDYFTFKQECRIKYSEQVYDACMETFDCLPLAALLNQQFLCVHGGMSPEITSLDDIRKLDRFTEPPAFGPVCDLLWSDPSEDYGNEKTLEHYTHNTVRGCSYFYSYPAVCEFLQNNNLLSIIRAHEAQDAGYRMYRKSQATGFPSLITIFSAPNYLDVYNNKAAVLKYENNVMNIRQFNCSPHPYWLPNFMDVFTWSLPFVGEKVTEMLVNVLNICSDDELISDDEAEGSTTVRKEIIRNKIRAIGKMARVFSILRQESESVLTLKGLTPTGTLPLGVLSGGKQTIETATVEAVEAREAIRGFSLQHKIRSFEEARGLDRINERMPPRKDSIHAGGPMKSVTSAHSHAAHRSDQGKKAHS
# UniProt P51659: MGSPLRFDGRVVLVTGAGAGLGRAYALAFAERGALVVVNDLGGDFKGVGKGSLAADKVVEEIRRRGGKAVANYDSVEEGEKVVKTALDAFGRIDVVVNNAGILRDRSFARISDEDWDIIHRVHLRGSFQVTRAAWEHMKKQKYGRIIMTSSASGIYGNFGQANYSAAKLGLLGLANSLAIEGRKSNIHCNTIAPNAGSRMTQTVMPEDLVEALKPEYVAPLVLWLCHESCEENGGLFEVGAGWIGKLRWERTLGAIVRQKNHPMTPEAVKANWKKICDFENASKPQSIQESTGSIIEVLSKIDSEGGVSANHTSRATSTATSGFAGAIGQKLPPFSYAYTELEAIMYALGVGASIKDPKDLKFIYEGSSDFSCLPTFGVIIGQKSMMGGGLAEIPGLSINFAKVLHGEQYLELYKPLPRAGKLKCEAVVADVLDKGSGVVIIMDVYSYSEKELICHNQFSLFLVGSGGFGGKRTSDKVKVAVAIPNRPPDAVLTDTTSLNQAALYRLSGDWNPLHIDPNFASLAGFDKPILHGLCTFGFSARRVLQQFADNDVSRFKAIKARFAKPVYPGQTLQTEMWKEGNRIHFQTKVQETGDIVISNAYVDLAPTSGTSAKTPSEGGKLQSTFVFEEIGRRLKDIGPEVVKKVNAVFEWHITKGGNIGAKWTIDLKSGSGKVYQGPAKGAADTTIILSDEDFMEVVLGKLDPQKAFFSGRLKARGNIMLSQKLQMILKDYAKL
# Compound: Nc1ncnc2c1ncn2[C@@H]1O[C@H](COP(=O)(O)OP(=O)(O)OP(=O)(O)O)[C@@H](O)[C@H]1O [adenosine triphosphate]
# Experiment: NP40-soluble protein abundance relative to vehicle (solubility fold change) (ratio); higher = more soluble protein in presence of ATP
# Procedure, shortened: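 Values are fold changes against the detergent-processed vehicle, based on vsn-normalised intensities. Jurkat crude lysate was treated at eight concentrations from 0.1 to 10 mM (10 min at room temperature, then 3 min at 37 °C), solubilised with 0.8% NP40 and benzonase, ultracentrifuged and analysed by TMT-labelled LC-MS/MS over three independent experiments.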
Target,NP40-soluble protein abundance (concentration: 0.1mM),NP40-soluble protein abundance (concentration: 0.5mM)
ADCY7 (UniProt P51828),0.874 ± 0.06,1 ± 0.15
RPL27A (UniProt P46776),0.912 ± 0.11,0.923 ± 0.14
MTHFS (UniProt P49914),1.04 ± 0.046,1.04 ± 0.074
CBX5 (UniProt P45973),1.01 ± 0.026,1.088 ± 0.01
UniProt P41250,1.02 ± 0.066,1.02 ± 0.062
DUSP3 (UniProt P51452),0.971 ± 0.055,0.941 ± 0.079
RPIA (UniProt P49247),1.01 ± 0.043,1.01 ± 0.022
PIK3CG (UniProt P48736),0.998 ± 0.067,0.961 ± 0.051
LSS (UniProt P48449),1.03 ± 0.085,1.01 ± 0.064
PSMB2 (UniProt P49721),0.959 ± 0.035,0.962 ± 0.026
SRP9 (UniProt P49458),0.962 ± 0.043,0.927 ± 0.14
UniProt P40429 and related entries,0.954 ± 0.12,0.974 ± 0.063
HPCAL1 (UniProt P37235),0.954 ± 0.021,0.896 ± 0.089
PPP1R2 (UniProt P41236),0.874 ± 0.14,0.84 ± 0.14
UniProt P46734,1.08 ± 0.036,1.13 ± 0.032
EPS15 (UniProt P42566),1 ± 0.04,0.998 ± 0.04
RAB27A (UniProt P51159),1.02 ± 0.077,1.03 ± 0.077
LRPPRC (UniProt P42704),0.97 ± 0.063,1.02 ± 0.045
PSMB10 (UniProt P40306),0.963 ± 0.041,0.971 ± 0.039
UniProt P51157 and related entries,1.03 ± 0.028,1.05 ± 0.036

Target,NP40-soluble protein abundance (concentration: 0.1mM),NP40-soluble protein abundance (concentration: 0.5mM)
CCT6A (UniProt P40227),1.1 ± 0.2,0.877 ± 0.19
ATP6V1E1 (UniProt P36543),0.946 ± 0.026,0.935 ± 0.02
RPL28 (UniProt P46779),0.913 ± 0.13,0.873 ± 0.17
ATP6V1A (UniProt P38606),1.03 ± 0.028,1.02 ± 0.02
UniProt P36956 and related entries,1.03 ± 0.1,0.974 ± 0.086
GCLC (UniProt P48506),1.06 ± 0.067,1.04 ± 0.087
RGS19 (UniProt P49795),0.972 ± 0.036,0.984 ± 0.083
RPL34 (UniProt P49207),0.868 ± 0.12,0.844 ± 0.12
NEK4 (UniProt P51957),1.02 ± 0.12,1.09 ± 0.1
SLC1A4 (UniProt P43007),1.02 ± 0.054,0.996 ± 0.069
PPOX (UniProt P50336),1.13 ± 0.15,1.02 ± 0.073
UniProt P42898 and related entries,1.05 ± 0.13,1.09 ± 0.1
RPL29 (UniProt P47914),0.898 ± 0.15,0.911 ± 0.16
CAPZA2 (UniProt P47755),1.02 ± 0.047,1.06 ± 0.056
UniProt P42684 and related entries,0.972 ± 0.073,1.079 ± 0.0085
MTIF2 (UniProt P46199),1.05 ± 0.039,1.06 ± 0.05
UniProt P36954,0.95 ± 0.038,1.04 ± 0.024
UniProt P50613,1.01 ± 0.065,1.04 ± 0.049
HSPA9 (UniProt P38646),0.881 ± 0.07,1 ± 0.1
CRKL (UniProt P46109),1.03 ± 0.025,1.01 ± 0.018

Target,NP40-soluble protein abundance (concentration: 0.1mM),NP40-soluble protein abundance (concentration: 0.5mM)
PPM1A (UniProt P35813),1.01 ± 0.054,1.01 ± 0.051
TMED10 (UniProt P49755),1.08 ± 0.11,1.08 ± 0.12
CDC34 (UniProt P49427),0.962 ± 0.05,0.992 ± 0.09
TALDO1 (UniProt P37837),0.964 ± 0.012,0.948 ± 0.033
CRIP1 (UniProt P50238),0.946 ± 0.091,0.949 ± 0.073
UniProt P46939 and related entries,0.9697 ± 0.0074,0.996 ± 0.033
VASP (UniProt P50552),0.945 ± 0.028,0.992 ± 0.035
MTOR (UniProt P42345),1.04 ± 0.037,1.04 ± 0.033
UniProt P40763 and related entries,1.03 ± 0.04,1.06 ± 0.051
MCM2 (UniProt P49736),1.02 ± 0.066,1.01 ± 0.056
COIL (UniProt P38432),1.05 ± 0.16,1.06 ± 0.12
TSFM (UniProt P43897),0.992 ± 0.031,0.974 ± 0.032
RANBP2 (UniProt P49792),0.9868 ± 0.0095,1.02 ± 0.038
PIK3CA (UniProt P42336),1.06 ± 0.086,1.05 ± 0.11
PREP (UniProt P48147),1.06 ± 0.098,1.06 ± 0.096
UniProt P48454 and related entries,1.02 ± 0.016,1.04 ± 0.076
HSD17B4 (UniProt P51659),0.989 ± 0.044,1.01 ± 0.017
CRIP2 (UniProt P52943),1.01 ± 0.021,0.963 ± 0.025
UniProt P43155 and related entries,1.05 ± 0.071,1.06 ± 0.072
ACADSB (UniProt P45954),1.04 ± 0.081,1.04 ± 0.045

# Whole records from above:
# VASP (UniProt P50552) is entered as NP40-soluble protein abundance (concentration: 0.1mM): 0.945 ± 0.028; NP40-soluble protein abundance (concentration: 0.5mM): 0.992 ± 0.035
# PIK3CA (UniProt P42336) is entered as NP40-soluble protein abundance (concentration: 0.1mM): 1.06 ± 0.086; NP40-soluble protein abundance (concentration: 0.5mM): 1.05 ± 0.11
# HSPA9 (UniProt P38646) is entered as NP40-soluble protein abundance (concentration: 0.1mM): 0.881 ± 0.07; NP40-soluble protein abundance (concentration: 0.5mM): 1 ± 0.1

# Source: the supplement of paper PMC6411743
